# From PMC11486366
# The chains behind the UniProt entries cited, without tags or fusion partners.
# UniProt Q962H9: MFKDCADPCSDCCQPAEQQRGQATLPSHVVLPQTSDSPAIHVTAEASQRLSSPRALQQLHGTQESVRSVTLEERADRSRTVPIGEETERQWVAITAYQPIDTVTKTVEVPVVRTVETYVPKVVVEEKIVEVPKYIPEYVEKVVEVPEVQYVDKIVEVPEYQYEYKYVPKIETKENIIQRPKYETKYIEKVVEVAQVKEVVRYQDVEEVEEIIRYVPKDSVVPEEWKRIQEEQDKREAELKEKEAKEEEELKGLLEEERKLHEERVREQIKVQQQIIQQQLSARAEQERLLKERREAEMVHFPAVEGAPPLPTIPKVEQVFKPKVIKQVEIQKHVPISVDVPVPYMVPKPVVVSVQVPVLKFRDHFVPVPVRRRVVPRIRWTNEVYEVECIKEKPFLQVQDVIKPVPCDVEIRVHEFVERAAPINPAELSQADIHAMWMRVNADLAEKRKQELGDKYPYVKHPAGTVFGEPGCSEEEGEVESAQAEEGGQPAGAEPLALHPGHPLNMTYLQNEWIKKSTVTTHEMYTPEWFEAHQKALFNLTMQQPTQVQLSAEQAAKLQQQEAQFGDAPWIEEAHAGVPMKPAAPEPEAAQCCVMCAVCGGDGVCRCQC
# Results are given in words; binding and its absence hold for the method and conditions named. In cells and extracts the contact can be indirect. These calls come from enrichment with a bait or labelling near it, and not all partners need be listed.
# Target: FLAG-Myosin-A WT (complement) (Toxoplasma gondii) (UniProt O00934)
# Assay: proximity labelling; reciprocal BAR in a cell line expressing FLAG-tagged MyoA; streptavidin beads, mass spectrometry
substance,measurement,value
IMC1 (from UniProt Q962H9 1-609),binding,binds
